Experimental data published in patent publication US12558348B2, “Bioactive phytochemicals” (Phytoquest Limited, priority 2019, dated 2026).
At least one compound was matched to its structure with a doubt left.

Test system: TNF-α
Test: Production of TNF-α by human monocytic cell line THP-1
Type: cell-based
Conditions: with mifepristone (glucocorticoid receptor antagonist)
Method: THP-1 cells are commercially available. Cultured cells can be placed in RPMI complete medium in microtitre plates (e.g. […] in 96 well plates) and after 24 hrs incubation, PMA (10 ng/mi) added to 96 well plate to differentiate THP-1 cells and to determine the effects on TNF-α and IL-10 production. The cells should be pre-treated with cucumber extract at, for example, 200 μg/ml to 25 μg/ml followed by 2 hr LPS (100 ng/ml) stimulation. Post incubation, the cell supernatant is aspirated from each of the wells into sterile micro centrifuge tubes and centrifuged at 1000 rpm for 2-3 mins to settle any cells if present. The cell supernatant is then used for evaluation of presence of TNF-α or IL-10 using ELISA. Sandwich ELISA plates coated with suitable antibody are widely available (e.g. R&D Systems, USA).
A second study indicated even greater activity for idoBR1 in human blood (significant at 0.01 μM) with pre-incubation. […] The data clearly indicate that idoBR1 can inhibit the production of TNF-α in human blood. Thus, it appears that it may be a potent anti-inflammatory agent. It also appears that it may be acting via a novel mechanism distinct from the steroid receptor pathways.

In the case of `C[C@@H]1C[C@H]2[C@@H]3CCC4=CC(=O)C=C[C@]4(C)[C@@]3(F)[C@@H](O)C[C@]2(C)[C@@]1(O)C(=O)CO` [dexamethasone, reference compound], the “suppressive action on TNF-α in the presence of mifepristone” value is reported as “reversed the suppressive action of dexamethasone”.
